## Screening data, single-dose tests

Chains of the proteins cited; added tags and fusions are not shown.
UniProt P9WPC5, whole entry: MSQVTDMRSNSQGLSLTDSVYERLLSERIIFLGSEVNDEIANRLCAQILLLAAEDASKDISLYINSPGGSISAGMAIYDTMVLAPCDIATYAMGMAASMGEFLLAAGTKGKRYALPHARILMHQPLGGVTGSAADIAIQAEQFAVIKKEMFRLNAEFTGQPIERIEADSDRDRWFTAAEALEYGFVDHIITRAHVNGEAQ
UniProt P9WPC3, whole entry partner: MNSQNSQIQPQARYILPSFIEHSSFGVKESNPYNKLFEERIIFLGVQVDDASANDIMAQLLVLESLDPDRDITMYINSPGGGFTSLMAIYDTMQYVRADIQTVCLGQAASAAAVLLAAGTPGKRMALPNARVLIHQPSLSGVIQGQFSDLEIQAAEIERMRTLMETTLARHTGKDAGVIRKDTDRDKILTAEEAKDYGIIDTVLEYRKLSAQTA
UniProt I6X8D2, whole entry: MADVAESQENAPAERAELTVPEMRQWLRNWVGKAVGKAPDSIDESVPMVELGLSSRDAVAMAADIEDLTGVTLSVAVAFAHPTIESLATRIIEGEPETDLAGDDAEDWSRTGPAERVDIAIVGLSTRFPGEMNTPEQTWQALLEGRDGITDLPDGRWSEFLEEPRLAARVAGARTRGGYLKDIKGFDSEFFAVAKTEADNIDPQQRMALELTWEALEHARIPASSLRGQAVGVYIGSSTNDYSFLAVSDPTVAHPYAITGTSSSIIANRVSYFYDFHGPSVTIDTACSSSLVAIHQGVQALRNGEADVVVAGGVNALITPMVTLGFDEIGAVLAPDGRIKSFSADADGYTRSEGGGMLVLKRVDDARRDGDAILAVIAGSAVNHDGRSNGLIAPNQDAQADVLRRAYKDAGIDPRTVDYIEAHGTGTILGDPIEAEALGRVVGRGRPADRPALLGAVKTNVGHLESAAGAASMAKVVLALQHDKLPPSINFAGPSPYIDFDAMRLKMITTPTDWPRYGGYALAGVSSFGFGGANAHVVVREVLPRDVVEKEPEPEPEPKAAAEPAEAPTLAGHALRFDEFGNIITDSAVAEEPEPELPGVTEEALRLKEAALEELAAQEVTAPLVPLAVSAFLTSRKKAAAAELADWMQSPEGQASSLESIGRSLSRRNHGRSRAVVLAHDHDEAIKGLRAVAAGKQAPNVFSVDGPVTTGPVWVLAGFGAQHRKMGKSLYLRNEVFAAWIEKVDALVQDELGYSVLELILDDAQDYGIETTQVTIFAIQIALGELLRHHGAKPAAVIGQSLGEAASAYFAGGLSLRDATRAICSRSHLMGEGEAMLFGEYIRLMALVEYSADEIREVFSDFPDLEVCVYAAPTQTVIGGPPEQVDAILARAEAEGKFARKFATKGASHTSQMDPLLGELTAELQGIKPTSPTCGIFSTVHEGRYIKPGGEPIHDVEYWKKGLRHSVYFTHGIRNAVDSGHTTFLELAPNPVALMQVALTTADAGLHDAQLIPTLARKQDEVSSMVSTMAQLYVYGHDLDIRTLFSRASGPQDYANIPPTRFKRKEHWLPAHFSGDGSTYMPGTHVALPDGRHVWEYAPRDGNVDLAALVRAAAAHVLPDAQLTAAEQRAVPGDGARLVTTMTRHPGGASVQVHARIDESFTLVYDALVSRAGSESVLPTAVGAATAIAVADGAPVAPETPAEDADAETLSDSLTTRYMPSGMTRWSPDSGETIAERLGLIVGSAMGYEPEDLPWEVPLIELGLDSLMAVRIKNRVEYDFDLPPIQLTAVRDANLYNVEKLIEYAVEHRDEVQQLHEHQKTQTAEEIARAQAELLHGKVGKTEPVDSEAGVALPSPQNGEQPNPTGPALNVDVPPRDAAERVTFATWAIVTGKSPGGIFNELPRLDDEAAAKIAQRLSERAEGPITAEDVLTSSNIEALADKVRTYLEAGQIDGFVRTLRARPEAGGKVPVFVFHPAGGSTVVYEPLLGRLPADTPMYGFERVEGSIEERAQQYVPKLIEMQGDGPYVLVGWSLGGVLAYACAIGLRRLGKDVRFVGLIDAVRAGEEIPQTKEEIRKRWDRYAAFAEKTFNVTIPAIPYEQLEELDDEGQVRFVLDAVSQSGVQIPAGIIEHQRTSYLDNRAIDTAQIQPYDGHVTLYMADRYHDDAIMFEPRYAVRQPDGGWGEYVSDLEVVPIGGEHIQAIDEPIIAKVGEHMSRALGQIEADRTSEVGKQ

From ChEMBL document CHEMBL3988442, “University of Dundee, Small-Polar-MMV Screening Library” (2021).

A: 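Protease assay of ClpP1P2, read by the AMC dye that it sets free. Target: ClpP1P2, Mycobacterium tuberculosis (UniProt P9WPC5 and UniProt P9WPC3). Compounds at 50 µM. Higher reads as stronger inhibition, judged from the few compounds that gave an IC50. Most other retested compounds had strongly negative values. Of about 69,000 compounds tested this way, about 10 (0.015%) reached 50% or more in at least one test.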
B: 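Enzyme assay of the thioesterase domain of polyketide synthase 13; the read-out is not stated. Target: Polyketide synthase Pks13, Mycobacterium tuberculosis (UniProt I6X8D2). Tested at 30 µM. The record gives no direction; the compounds picked for IC50 retests had high values, so higher reads as stronger inhibition. About 67,000 compounds were tested under these conditions; 0.46% (about 300) showed 50% or more at least once.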

Each number is a percent effect as filed.
The controls that fix the scale are not given in the record; negative values are as filed.
This is an unselected part of the compounds tested.
A dash means the value is not listed here; it may have been measured.

SMILES,A,B
O=C(NCCSC1CCCC1)c1cc(Cl)ccn1,4.321%,7.764%
Cc1cnc(-c2nc(C3CCN(Cc4ccccc4C)CC3)no2)cn1,-7.831%,1.675%
Cc1nnc(CNC(C)c2cc(C)c(F)c(C)c2)s1 (configuration not stated),-8.61%,-14.9%
O=C(Nc1ccc(-n2cccn2)cc1)N1C[C@H](O)[C@@H](N2CCOCC2)C1,-9.37%,-18.9%
Cc1nc(CN2CCCC(N(C)Cc3nnsc3Cl)C2)no1 (configuration not stated),1.988%,-16.03%
CS(=O)(=O)NCC(=O)NC(Cc1ccccc1)C1CCCC1 (configuration not stated),-3.144%,-4.493%
CN(C)c1cc(C(=O)NCC2(c3ccc(F)cc3)CC2)ccn1,-4.566%,-26.15%
CCCN(CCO)S(=O)(=O)c1ccc2[nH]c(=O)[nH]c2c1,4.615%,-3.918%
O=C(c1ccncc1)N1CCN(c2ccc(F)cc2Cl)CC1,-7.819%,-4.545%
Cc1ccc(C(=O)CN2C(=O)c3ccccc3CS2(=O)=O)c(C)c1,1.446%,1.173%
COc1ccccc1CN(Cc1cccs1)S(=O)(=O)N(C)C(C)C,-8.393%,8.201%
CC(C)CSCCN1CCN(S(C)(=O)=O)CC1,-4.562%,6.204%
CC(=O)N1CCC(c2nn(C)c3nccnc23)C1 (configuration not stated),17.77%,5.564%
COc1c(C)cnc(CN2CCC(N(C)S(C)(=O)=O)CC2)c1C,-9.919%,-4.076%
CC(C)N1CCC(C(=O)N[C@H](C(=O)O)c2cccc(F)c2F)CC1,-0.3447%,-3.752%
CCn1cc(C(=O)NCC2(C(N)=O)CCOCC2)c2ccccc21,-16.65%,-28.65%
CCn1ncc(S(=O)(=O)NC2(CN3CCOCC3)CCCCC2)c1C,-10.69%,7.306%
Cc1cn2c(n1)CCC(NC(=O)CCC(F)(F)F)C2 (configuration not stated),3.749%,-10.84%
N#Cc1c(F)cccc1N1CCC(NS(=O)(=O)c2cccs2)CC1,3.802%,27.67%
COc1c(CNC2(c3noc(C)n3)CCC2)c(C)nn1C,-0.8798%,-28.66%
CC(C)c1cccc(CSc2nnc(CN3CCCC3=O)o2)n1,-14.2%,-14.15%
COC(=O)N1CCCCC1C(=O)N1CCN(c2ncccc2C)CC1 (configuration not stated),-1.396%,-2.182%
CC(=O)c1ccc(N2CCCC(CO)(CCc3ccccc3)C2)nc1 (configuration not stated),-10.1%,55.13%
CN(C)c1ncc2c(n1)C1(CCN(CC3CC3)C1)COC2 (configuration not stated),-8.866%,-0.8519%
COC[C@@]12CCO[C@@H]1CCN(C(=O)c1ccc(F)c(F)c1)C2,-17%,-9.876%
CC(=O)NCc1ccc(C(=O)N2CCCC2c2cnn(C)c2)cc1 (configuration not stated),-4.028%,-3.429%
CCn1nc2c(cc1=O)CN(Cc1nc(-c3ccco3)no1)CC2,-27.23%,-4.796%
CCN1C(=O)[C@]2(CC[C@@H]3CN(C(=O)Nc4ccc(F)cc4)C[C@@H]32)N=C1C,-5.977%,-1.792%
Cc1nnc(NC(=O)NCc2ccc(N3CCN(C)CC3)nc2)s1,10.5%,-6.452%
COc1cccc(N2CCN(C(=O)[C@H](O)C3CCCCC3)CC2=O)c1,-2.097%,-2.973%
Cc1oc(CN(C)C(=O)c2ccc(C(F)(F)F)cc2)cc1C(=O)O,-16.47%,-8.319%
COCCCN(C)C(=O)Cn1cccc(OC)c1=O,-16.47%,8.915%
Cc1cn(CC(=O)NC2CCN(C(C)C)CC2)c2ccccc12,1.035%,-29.88%
CCc1ncc(-c2cn(CCSc3ncn[nH]3)nn2)cn1,-1.351%,-28.33%
c1cc(CN2CCOC(Cn3cccn3)C2)c2c(c1)OCCO2 (configuration not stated),-2.874%,-11.82%
O=C(NCc1ccc(N2CC=CC2)cc1)Nc1nnc(C2CC2)s1,-4.178%,12.95%
Cc1noc(C)c1CN(C)c1nc(C2CCCC2)nc2c1cnn2C,3.326%,-45.17%
COc1cccc(CN(C)C(=O)CN2CC(n3nc(C)cc3C)C2)c1,1.11%,-35.78%
CC(=O)NC(C)(C)C(=O)Nc1ncc(Cc2ccc(C)c(F)c2)s1,7.893%,-4.79%
COc1ccc(OCc2noc(CN(C)C3CCS(=O)(=O)C3)n2)cc1 (configuration not stated),-5.528%,-
O=C1CSC(c2cccs2)c2cnn(C3CCCC3)c2N1 (configuration not stated),5.941%,-309.1%
O=C(N[C@@H]1CN(C2CCCC2)C[C@@H]2CCCO[C@@H]21)c1cnccn1,6.799%,-16.56%
Cc1nn(C)c(N(C)C)c1CNCc1cccnc1,-9.613%,-21.2%
O=C(NC1CC1)[C@H]1C[C@H]2OCC[C@H]2N(CC2CCOCC2)C1,1.073%,-15.29%
Cc1cc(NC(=O)CCn2cncn2)no1,-10.8%,7.062%
N#Cc1ccc(N2CCC3(CCC(=O)N3Cc3cccnc3)CC2)nc1,-2.431%,-6.658%
OCCn1cc(CN2CCN(CCOc3ccc(F)cc3)CC2)cn1,-30.61%,-8.053%
O=C(NCc1cnn2cccnc12)C1CC(=O)N(Cc2cccnc2)C1 (configuration not stated),-8.829%,-10.4%
Cc1nc(NC(=O)C2(C)CN(C)CCO2)sc1C (configuration not stated),-8.72%,1.911%
Cc1nc(N2CCN(C(=O)CC3CCCC3)CC2)c2cnn(C)c2n1,-2.344%,-24.41%